Data as given in patent US20190330315A1 (IMAGO PHARMACEUTICALS, published 2019).
These are yes or no findings as the source states them, for the method shown. Some results given as binding are weak or reduced against the parent protein; the word gives no strength. Where no end group is shown, it is not given here.

Key:
[1] = biological target: T1, Peptide 1: α-synuclein amino acids 100-117 (18 amino acids) … (human); assay: BLI (refers to Example 2)
T1 sequence (peptide, biotinylated (position not stated)): LGKNEEGAPQEGILEDMP

[2] = biological target: T1, Peptide 1: α-synuclein amino acids 100-117 (18 amino acids) … (human); assay: BLI (ForteBio Octet Red96), biotinylated peptide on streptavidin biosensors

binding [1]: binds
binding [2]: binds
B1: IGP101 (antibody, V domains shown)
VH: EVQLVESGGGLVQPKGTLKLSCAASGFSFNTYAMNWVRQAPGKSLEWVARTLSKSNNYATYYADSVKDRFTISRDDSQSMLSLQMNNLKTEDTAMYYCVGAFAYWGQGTLVTVSA
VL: DIVMTQAAPSVPVTPGESVSISCRSSKSLLHSNGNTYLYWFLQRPGQSPQLLIYRMSNLASGVPDRFSGSGSGTAFTLRISRVEAEDVGVYYCMQHLEFPFTFGAGTKLELK
notes: Mouse monoclonal antibody from hybridoma ATCC PTA-9197; It was tested as whole mouse IgG, captured on anti-mouse IgG biosensors; The constant regions and isotype are not explicitly stated; a g2b constant region primer is mentioned only in illustrative cloning methods; also called IGP101 antibody; mouse monoclonal antibody IGP101
